Results from PMC12806521.
No constants are given. Whether binding was seen depends on the method and setting. For part of these data: In cells and extracts the contact can be indirect. Some results given as binding are weak or reduced against the parent protein; the word gives no strength. For part of these data: Sequences can lack the tags named with a protein.

Legend:
[1] = biological target: T1, FXYD3 (endogenous, HUCCT1 cells) (human (endogenous in HUCCT1)) (UniProt Q14802); assay: co-IP; cytoplasmic fraction of HUCCT1 cells; immunoprecipitation with antibodies against FXYD3, IRF7 or control rabbit IgG, immunoblot with anti-FXYD3 and anti-IRF7
T1 sequence: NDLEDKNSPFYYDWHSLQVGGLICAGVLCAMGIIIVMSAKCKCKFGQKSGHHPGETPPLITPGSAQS

[2] = biological target: T1, FXYD3 (endogenous, HUCCT1 cells) (human (endogenous in HUCCT1)); assay: co-IP; endogenous proteins, HUCCT1 cells; lysates incubated with anti-FXYD3 or anti-IRF7 antibodies and protein G magnetic beads, immunoblot; also in IFN-treated cells (IFN-1 stimulation augmented the interaction) and after anifrolumab (suppressed the interaction)
Flag-FXYD3 = biological target: T2, Flag-FXYD3 (UniProt Q14802); assay: co-IP; epitope-tagged plasmids in HEK293T cells; lysis buffer 5% glycerol, 1% Nonidet P-40, 1 mM EDTA, 100 mM NaCl, 20 mM Tris-HCl pH 8.0; overnight at 4 °C with anti-FLAG M2 beads or anti-HA beads; immunoblot with anti-HA or anti-Flag
T2 sequence: T1 sequence

GST-IRF7 [3] = biological target: T3, GST-IRF7 (UniProt Q92985); assay: pull-down; recombinant purified GST-IRF7 with total proteins from HUCCT1 cells; only the target purified
T3 sequence: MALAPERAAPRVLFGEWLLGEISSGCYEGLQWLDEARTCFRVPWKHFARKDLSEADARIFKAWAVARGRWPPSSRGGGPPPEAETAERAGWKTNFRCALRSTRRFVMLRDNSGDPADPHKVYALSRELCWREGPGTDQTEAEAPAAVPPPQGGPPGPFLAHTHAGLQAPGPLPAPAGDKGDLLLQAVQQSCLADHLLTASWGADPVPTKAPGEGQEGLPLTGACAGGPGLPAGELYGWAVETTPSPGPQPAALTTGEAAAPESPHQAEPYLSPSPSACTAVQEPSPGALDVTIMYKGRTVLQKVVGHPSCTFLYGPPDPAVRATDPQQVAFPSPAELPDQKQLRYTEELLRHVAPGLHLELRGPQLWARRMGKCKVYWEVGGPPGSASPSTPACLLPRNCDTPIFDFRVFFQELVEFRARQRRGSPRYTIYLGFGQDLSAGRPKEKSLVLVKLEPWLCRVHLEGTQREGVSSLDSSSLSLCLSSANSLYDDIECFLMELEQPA

GST-IRF7 [4] = biological target: T3, GST-IRF7; assay: pull-down; about 10 µg GST-IRF7 on glutathione-Sepharose beads, equimolar (or 10-15 µg) purified His-tagged FXYD3; 50 mM Tris-HCl pH 7.5, 150 mM NaCl, 1 mM EDTA, 1% Triton X-100, 1 mM DTT; 4 °C, 2-3 h; western blot with anti-FXYD3 and anti-GST; both purified
[5] = biological target: T4, HA-tagged FXYD3 (full length) (UniProt Q14802); assay: co-IP; epitope-tagged plasmids in HEK293T cells; lysis buffer 5% glycerol, 1% Nonidet P-40, 1 mM EDTA, 100 mM NaCl, 20 mM Tris-HCl pH 8.0; overnight at 4 °C with anti-FLAG M2 beads or anti-HA beads; immunoblot with anti-HA or anti-Flag
T4 sequence: T1 sequence

B1: IRF7 (endogenous, HUCCT1 cells) (protein, UniProt Q92985 1-503)
chain: T3 sequence
- binding [1]: binds
- binding [2]: binds

B2: HA-IRF7 (protein, UniProt Q92985 1-503)
chain: T3 sequence
- binding (Flag-FXYD3): binds

B3: FXYD3 (endogenous, HUCCT1 cells) (protein, UniProt Q14802 21-87)
chain: T1 sequence
- binding (GST-IRF7 [3]): binds

B4: His-tagged FXYD3 (protein, UniProt Q14802 21-87)
chain: T1 sequence
- binding (GST-IRF7 [4]): binds

B5: FLAG-tagged IRF7 (protein, UniProt Q92985 1-503)
chain: T3 sequence
- binding [5]: binds
